In paper PMC4123098:
No constants are given. Whether binding was seen depends on the method and setting. Binding seen in cells or lysates may run through a third protein. Some binding calls cover weakened binding; strength is not graded here.

Molecular target: DJ-1-CFPC (WT) (UniProt Q99497)
Test: split reporter; BiFC in living HEK293 cells co-transfected with two constructs; green fluorescence normalised to co-transfected mCherry or RFP; 30 °C overnight before imaging

binding: binds
Substance: DJ-1-GFPN (WT) (from UniProt Q99497 1-189) (other; other documents disagree on this pair)
